The data set in a line: NIR fluorescence imaging of mouse phantoms with heart port filled with FBS and dye stock aliquot. The settings on record: fresh stock solutions, final dye 2 μM in FBS.

SMILES strings stand for the structures.

The results in this text go back to patent publication US12392781B2, “Deuterated indole heptamethine cyanine dyes” (University of Notre Dame du Lac, priority 2021, dated 2025).

With `CC1(C)C(/C=C/C=C/C=C/C=C2/N(CCCCS(=O)(=O)[O-])c3ccc4ccccc4c3C2(C)C)=[N+](CCCCS(=O)(=O)[O-])c2ccc3ccccc3c21.[Na+]` [ICG, Indocyanine Green], the “Image intensity of heart region compared with ICG-d5” value is reported as “no difference in image intensities”.
